This is one part of the list.
Compound: Cc1cc(ccc1-c1ccccc1)C(=O)N1CCCN(CC1)C(=O)CCl [compound 10]
Test: probe-labelled cysteine peptide fold change vs DMSO (competition) (log2 fold change); higher = less target engagement (more negative = stronger competition)
Conditions: THP-1, incubation time: 4 h
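Further: competitive profiling in live THP-1 cells: cysteine peptides tagged with an iodoacetamide desthiobiotin (IA-DTB) probe, intensity after compound treatment relative to DMSO-treated cells.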

The chains behind the UniProt entries cited, without tags or fusion partners. Where a name states a change or a piece, a line headed by the entry shows the natural chain unless it says otherwise.
UniProt Q92600, whole entry, looked up: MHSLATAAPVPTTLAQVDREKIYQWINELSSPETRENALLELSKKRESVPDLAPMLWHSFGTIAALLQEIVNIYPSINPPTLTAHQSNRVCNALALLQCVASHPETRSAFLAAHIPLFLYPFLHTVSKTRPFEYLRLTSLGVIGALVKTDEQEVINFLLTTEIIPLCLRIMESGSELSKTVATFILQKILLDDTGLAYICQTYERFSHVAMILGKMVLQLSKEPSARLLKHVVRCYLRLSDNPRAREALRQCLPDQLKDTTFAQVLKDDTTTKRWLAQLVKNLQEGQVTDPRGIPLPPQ
UniProt Q9BQ75: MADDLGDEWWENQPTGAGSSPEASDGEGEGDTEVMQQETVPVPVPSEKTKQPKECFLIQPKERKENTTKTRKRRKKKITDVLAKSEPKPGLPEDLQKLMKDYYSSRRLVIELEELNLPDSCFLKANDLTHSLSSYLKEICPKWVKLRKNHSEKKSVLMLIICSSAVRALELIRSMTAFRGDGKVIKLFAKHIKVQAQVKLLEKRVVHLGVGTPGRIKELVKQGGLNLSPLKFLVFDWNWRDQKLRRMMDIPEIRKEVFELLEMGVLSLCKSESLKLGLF
UniProt Q9Y678: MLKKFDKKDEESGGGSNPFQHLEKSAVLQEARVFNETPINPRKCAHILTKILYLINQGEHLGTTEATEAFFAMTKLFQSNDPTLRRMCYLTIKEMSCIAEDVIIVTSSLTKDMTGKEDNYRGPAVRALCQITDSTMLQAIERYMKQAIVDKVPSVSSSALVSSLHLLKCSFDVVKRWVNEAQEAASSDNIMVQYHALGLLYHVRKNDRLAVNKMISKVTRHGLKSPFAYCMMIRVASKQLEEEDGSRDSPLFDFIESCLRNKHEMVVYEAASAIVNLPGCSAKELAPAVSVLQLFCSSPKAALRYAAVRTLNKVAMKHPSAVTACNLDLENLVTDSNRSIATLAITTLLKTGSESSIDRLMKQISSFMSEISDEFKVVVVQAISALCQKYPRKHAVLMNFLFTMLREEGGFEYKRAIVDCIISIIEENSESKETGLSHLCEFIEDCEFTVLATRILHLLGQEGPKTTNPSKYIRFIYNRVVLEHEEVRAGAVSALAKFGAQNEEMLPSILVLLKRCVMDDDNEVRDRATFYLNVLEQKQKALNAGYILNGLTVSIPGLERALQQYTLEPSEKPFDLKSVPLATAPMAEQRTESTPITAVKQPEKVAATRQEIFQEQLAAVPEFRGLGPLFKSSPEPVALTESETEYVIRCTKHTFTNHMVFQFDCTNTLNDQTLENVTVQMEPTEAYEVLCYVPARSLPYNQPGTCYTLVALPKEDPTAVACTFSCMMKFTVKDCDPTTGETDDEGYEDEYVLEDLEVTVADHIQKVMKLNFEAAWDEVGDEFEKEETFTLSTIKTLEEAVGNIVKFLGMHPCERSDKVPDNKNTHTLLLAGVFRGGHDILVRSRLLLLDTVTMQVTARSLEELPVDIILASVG
UniProt Q5EBM0: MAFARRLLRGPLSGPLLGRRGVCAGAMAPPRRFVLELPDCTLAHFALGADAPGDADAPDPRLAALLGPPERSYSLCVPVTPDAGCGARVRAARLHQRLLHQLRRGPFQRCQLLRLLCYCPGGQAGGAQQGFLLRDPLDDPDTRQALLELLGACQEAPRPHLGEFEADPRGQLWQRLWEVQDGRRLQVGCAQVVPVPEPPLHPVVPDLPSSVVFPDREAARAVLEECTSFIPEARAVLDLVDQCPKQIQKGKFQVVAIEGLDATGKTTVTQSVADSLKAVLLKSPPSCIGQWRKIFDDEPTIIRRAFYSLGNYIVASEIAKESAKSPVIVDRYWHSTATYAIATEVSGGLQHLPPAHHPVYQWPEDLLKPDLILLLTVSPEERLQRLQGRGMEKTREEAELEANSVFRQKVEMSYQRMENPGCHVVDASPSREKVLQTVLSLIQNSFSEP
UniProt O95628: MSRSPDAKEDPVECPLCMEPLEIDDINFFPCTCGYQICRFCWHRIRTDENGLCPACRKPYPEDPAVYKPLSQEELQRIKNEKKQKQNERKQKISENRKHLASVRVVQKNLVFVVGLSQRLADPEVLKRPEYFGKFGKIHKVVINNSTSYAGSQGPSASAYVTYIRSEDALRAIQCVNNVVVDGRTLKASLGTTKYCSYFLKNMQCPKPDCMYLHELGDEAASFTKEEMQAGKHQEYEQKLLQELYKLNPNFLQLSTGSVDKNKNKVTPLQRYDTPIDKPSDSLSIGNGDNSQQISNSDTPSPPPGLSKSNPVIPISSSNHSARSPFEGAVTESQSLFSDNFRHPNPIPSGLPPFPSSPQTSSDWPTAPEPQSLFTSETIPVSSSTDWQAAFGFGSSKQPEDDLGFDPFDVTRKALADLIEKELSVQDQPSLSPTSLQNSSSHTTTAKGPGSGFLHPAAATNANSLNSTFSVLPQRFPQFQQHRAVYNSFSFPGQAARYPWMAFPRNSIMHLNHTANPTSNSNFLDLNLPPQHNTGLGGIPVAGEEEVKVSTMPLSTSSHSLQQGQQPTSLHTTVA
UniProt Q7L5N1: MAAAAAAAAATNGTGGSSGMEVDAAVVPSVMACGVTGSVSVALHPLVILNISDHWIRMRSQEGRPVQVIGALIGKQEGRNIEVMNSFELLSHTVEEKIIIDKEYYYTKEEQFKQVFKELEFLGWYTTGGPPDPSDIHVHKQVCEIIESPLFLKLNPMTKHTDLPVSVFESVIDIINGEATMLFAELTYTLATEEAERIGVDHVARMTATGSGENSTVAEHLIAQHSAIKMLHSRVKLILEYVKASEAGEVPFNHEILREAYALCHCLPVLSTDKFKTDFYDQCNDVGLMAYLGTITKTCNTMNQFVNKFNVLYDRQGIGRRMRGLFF
UniProt P53621: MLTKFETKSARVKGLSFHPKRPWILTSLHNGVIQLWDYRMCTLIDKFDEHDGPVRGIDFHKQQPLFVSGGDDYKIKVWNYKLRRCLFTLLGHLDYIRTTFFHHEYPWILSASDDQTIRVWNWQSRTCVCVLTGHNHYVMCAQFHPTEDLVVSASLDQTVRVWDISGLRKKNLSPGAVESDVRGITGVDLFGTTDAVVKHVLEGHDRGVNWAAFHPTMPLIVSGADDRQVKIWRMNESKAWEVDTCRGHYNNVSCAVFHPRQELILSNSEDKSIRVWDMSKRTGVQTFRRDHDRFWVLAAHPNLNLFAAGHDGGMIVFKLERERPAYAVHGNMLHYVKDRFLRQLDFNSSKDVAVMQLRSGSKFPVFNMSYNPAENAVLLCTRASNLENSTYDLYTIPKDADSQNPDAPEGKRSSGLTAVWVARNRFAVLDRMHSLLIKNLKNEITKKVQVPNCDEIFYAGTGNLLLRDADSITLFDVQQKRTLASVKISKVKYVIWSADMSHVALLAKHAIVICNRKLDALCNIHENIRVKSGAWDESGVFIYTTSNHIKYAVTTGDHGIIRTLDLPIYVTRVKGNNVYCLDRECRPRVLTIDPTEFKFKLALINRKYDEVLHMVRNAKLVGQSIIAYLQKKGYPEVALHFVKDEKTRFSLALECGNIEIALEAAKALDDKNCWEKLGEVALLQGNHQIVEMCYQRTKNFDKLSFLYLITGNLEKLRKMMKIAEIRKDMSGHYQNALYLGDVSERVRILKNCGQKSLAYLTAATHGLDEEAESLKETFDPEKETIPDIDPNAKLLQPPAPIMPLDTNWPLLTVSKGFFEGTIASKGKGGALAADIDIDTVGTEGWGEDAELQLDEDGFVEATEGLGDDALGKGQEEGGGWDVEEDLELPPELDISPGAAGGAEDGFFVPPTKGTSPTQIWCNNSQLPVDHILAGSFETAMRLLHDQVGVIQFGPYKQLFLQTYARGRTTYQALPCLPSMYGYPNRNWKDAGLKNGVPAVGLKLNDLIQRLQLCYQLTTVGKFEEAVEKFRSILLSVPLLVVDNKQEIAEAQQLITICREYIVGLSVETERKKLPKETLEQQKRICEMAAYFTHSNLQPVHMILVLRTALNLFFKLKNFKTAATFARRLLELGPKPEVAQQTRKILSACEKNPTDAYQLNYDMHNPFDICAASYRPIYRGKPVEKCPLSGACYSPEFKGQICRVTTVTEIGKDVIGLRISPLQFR
UniProt Q9UBI1, whole entry, looked up: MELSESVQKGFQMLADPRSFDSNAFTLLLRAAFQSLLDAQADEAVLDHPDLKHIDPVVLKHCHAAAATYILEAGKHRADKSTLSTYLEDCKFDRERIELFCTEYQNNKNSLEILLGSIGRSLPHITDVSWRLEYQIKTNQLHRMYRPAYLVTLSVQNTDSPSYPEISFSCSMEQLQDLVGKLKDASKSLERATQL
UniProt Q9H9Q2: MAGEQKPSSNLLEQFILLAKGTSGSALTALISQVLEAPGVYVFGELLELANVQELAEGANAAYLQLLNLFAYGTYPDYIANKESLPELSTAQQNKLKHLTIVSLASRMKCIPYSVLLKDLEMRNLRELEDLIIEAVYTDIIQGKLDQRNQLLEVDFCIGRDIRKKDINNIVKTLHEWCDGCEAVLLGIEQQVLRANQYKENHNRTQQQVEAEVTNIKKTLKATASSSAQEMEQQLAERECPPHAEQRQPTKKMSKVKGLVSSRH
UniProt Q9Y2B0: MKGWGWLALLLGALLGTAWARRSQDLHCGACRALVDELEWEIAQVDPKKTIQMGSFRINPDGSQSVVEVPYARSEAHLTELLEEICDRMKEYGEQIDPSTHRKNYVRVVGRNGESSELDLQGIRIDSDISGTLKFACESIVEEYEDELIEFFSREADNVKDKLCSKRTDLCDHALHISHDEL

Target	probe-labelled cysteine peptide fold change (10 µM)	probe-labelled cysteine peptide fold change (50 µM)
CNOT9_Q92600_91+99_VCNALALLQCVASHPETR (UniProt Q92600)	-0.0648	0.0754
COPS4_Q9BT78_232_HALHCTILASAGQQR (UniProt Q9BT78)	0.137	0.0952
CMSS1_Q9BQ75_121_LVIELEELNLPDSCFLK (UniProt Q9BQ75)	0.061	0.0649
CNOT1_A5YKK6_1287_FEIEVLCK (UniProt A5YKK6)	-0.0705	0.975
COPG1_Q9Y678_169_CSFDVVK (UniProt Q9Y678)	-0.158	0.202
CMPK2_Q5EBM0_243_AVLDLVDQCPK (UniProt Q5EBM0)	-0.281	-0.127
COPG1_Q9Y678_230_SPFAYCMMIR (UniProt Q9Y678)	0.119	-0.0435
CNOT4_O95628_56_IRTDENGLCPACR (UniProt O95628)	0.0155	-0.281
COPS6_Q7L5N1_143_QVCEIIESPLFLK (UniProt Q7L5N1)	0.0642	0.121
COPA_P53621_514_HAIVICNR (UniProt P53621)	0.177	0.352
COMMD3_Q9UBI1_90_STLSTYLEDCK (UniProt Q9UBI1)	-0.0355	0.135
CNTRL_Q7Z7A1_1423_HHEDIVDEIECIEK (UniProt Q7Z7A1)	0.185	-0.246
COPS7B_Q9H9Q2_110_CIPYSVLLK (UniProt Q9H9Q2)	0.293	-0.0301
CNOT9_Q92600_252_QCLPDQLK (UniProt Q92600)	0.234	0.0576
CNPY2_Q9Y2B0_28_SQDLHCGACR (UniProt Q9Y2B0)	-0.272	-0.187

Quoted at random: two entries already listed
Target	probe-labelled cysteine peptide fold change (10 µM)	probe-labelled cysteine peptide fold change (50 µM)
COPG1_Q9Y678_169_CSFDVVK (UniProt Q9Y678)	-0.158	0.202
CNOT4_O95628_56_IRTDENGLCPACR (UniProt O95628)	0.0155	-0.281
